# PubChem BioAssay (NCATS)
# This is one part of the list. These are further read-outs of the screen, such as a control signal, another cell line or another target. No call is given for them. Compounds called inactive in the main read-out are mostly missing here. Potencies come from curve fits of mixed quality, noted in brackets.
# Test: qHTS Assay for Inhibitors of PDE-IV (AID 607)
# Conditions: HEK293 ACTOne CNG channel cells, membrane potential fluorescence; measured here: parental cell counter-screen
# Outline: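 Cell-based read-out of cAMP via a modified cyclic nucleotide-gated channel and membrane potential dye (535/590 nm) in HEK293 cells expressing PDE4 endogenously. Compounds tested up to 22.9 uM final; 100 uM RO 20-1724 reference.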
row,Structure (SMILES),AC50
1,CCC1=C(C[C@H]2NCCc3cc(OC)c(OC)cc32)C[C@H]2c3ccccc3CCN2C1,"3.98 µM [rising, single point]"
2,O=P(c1ccccc1)(c1ccccc1)N1CC2(CC2)CC(O)(c2ccccc2)C1 (stereo unspecified),"6.31 µM [rising, partial curve]"
3,CC1N(P(=O)(c2ccccc2)c2ccccc2)CC(O)(c2ccccc2)CC12CC2 (stereo unspecified),"6.31 µM [rising, partial curve]"
4,c1ccc(N2CCCC3(CCNCC3)C2)nc1,"10 µM [rising, single point]"
5,Ic1ccccc1CN[C@@H]1C2CCN(CC2)[C@H]1C(c1ccccc1)c1ccccc1,"15.8 µM [rising, partial curve]"
6,COc1cc2c(c(OC)c1OC)-c1ccc(O)c(=O)cc1[C@@H](NC(C)=O)CC2,"15.8 µM [rising, single point]"
7,CCN(CC)CCO[C@H]1CC[C@@]2(C)C(=CC[C@@H]3[C@H]2CC[C@]2(C)C(=O)CC[C@H]32)C1,"7.94 µM [rising, partial curve]"
8,COC(=O)[C@H]1C[C@@H]1[C@H](NP(=O)(c1ccccc1)c1ccccc1)c1ccccc1,"1.58 µM [rising, full curve]"
9,CCC(=O)O[C@@](Cc1ccccc1)(c1ccccc1)[C@@H](C)CN(C)C,"6.31 µM [rising, partial curve, poor fit]"
10,CCCN(CCC)[C@@H]1CCc2c(OC)cccc2[C@@H]1C,"15.8 µM [rising, partial curve]"
11,CC(=O)O[C@H]1C[C@@H](O[C@@H]2[C@H](C)O[C@H](O[C@@H]3[C@H](C)O[C@H](O[C@@H]4CC[C@@]5(C)[C@@H](CC[C@]6(C)[C@]5(C)C[C@H](O)[C@]5(C)[C@@H](C7=CC(=O)OC7)CC[C@@]56O)C4)C[C@@H]3O)C[C@@H]2O)O[C@@H](C)[C@H]1O[C@H]1O[C@@H](CO)[C@@H](O)[C@@H](O)[C@@H]1O,"6.31 µM [rising, partial curve, poor fit]"
12,C[C@@H]1O[C@H](O[C@H]2C[C@@H](O)[C@@]3(CO)[C@H]4[C@@H](O)C[C@]5(C)[C@@H](C6=CC(=O)OC6)CC[C@]5(O)[C@H]4CC[C@]3(O)C2)[C@@H](O)[C@H](O)[C@@H]1O,"3.98 µM [rising, partial curve]"
13,Cc1cc(C)cc(C(=O)OC2C[C@H]3CC[C@@H](C2)N3C)c1 (stereo partly specified),"12.6 µM [rising, partial curve]"
14,Cc1noc(C)c1C(=O)N1CCC2(CCCN(CC(C)C)C2)CC1,"15.8 µM [rising, single point]"
15,CC(C)CN1CCC2(CC1)CCN(C(=O)Oc1ccccc1)CC2,"3.98 µM [rising, single point]"
16,Clc1ccc([C@@H](OCCN2CCCCC2)c2ccccc2)cc1,"5.01 µM [rising, partial curve]"
17,CCNC(=O)[C@@H]1O[C@@H](n2cnc3c(N)ncnc32)[C@@H](O)[C@H]1O,"12.6 µM [rising, partial curve]"
18,CNC(=O)[C@@H]1C[C@H]1[C@@H](NP(=O)(c1ccccc1)c1ccccc1)c1ccccc1,"0.631 µM [rising, single point]"
19,C[C@@]12CC[C@H](O)C[C@@H]1CC[C@H]1[C@H]2C[C@@H](O)[C@]2(C)[C@@H](C3=CC(=O)OC3)CC[C@@]12O,"0.501 µM [rising, partial curve, poor fit]"
20,CCCC[C@@H]1C[C@H]1C(NP(=O)(c1ccccc1)c1ccccc1)c1ccc(Cl)cc1 (stereo partly specified),"5.01 µM [rising, partial curve]"
21,C[C@@H]1O[C@H](O[C@H]2C[C@@H](O)[C@]3(CO)[C@H]4[C@H](O)C[C@]5(C)[C@@H](C6=CC(=O)OC6)CC[C@@]5(O)[C@H]4CC[C@]3(O)C2)[C@@H](O)[C@H](O)[C@H]1O,"2.51 µM [rising, full curve, poor fit]"

# Copied from above: entries 5–6
row,Structure (SMILES),AC50
5,Ic1ccccc1CN[C@@H]1C2CCN(CC2)[C@H]1C(c1ccccc1)c1ccccc1,"15.8 µM [rising, partial curve]"
6,COc1cc2c(c(OC)c1OC)-c1ccc(O)c(=O)cc1[C@@H](NC(C)=O)CC2,"15.8 µM [rising, single point]"
